Laboratory results as given in PubChem BioAssay AID504834 (National Center for Advancing Translational Sciences (NCATS), 2011).
About 22,000 (6.9%) of roughly 320,000 compounds were called active. Inconclusive results, whose numbers are uncertain, are shown with a selection of clear calls. Calls come from the whole dose curve; as a rule, active = well fitted inhibition curve with a large enough effect; inconclusive = small, poorly fitted or top-dose-only effect, or another doubt; inactive = no such curve, though single readings can be large or run the other way. A potency beside an inconclusive call is a rough fit, not a confirmed value.
Potency is the fitted concentration of half-maximal effect.

Assay: Primary qHTS for delayed death inhibitors of the malarial parasite plastid, 96 hour incubation
Settings: P. falciparum luciferase reporter growth; series mostly up to 28.7 µM
Summary of the method: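 P. falciparum expressing integrated firefly luciferase grown in erythrocytes (2% hematocrit, 0.05% parasitemia final) with compounds for 96 hours at 37 C, 5% CO2. Growth inhibition read as loss of luminescence after adding luciferase detection reagent.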
For `CSc1ncccc1C(=O)Nc1nc2c(C)cccc2s1`, the Potency was “inactive”.
For `O=S(=O)(NCc1ccco1)c1ccc2c(c1)Cc1ccccc1-2`, the Potency was “inactive”.
In the case of `Cc1cc([N+](=O)[O-])nn1CC(=O)N/N=C/c1ccccc1O`, the Potency is reported as inconclusive: 11.7 µM [inhibitor, partial curve, poor fit].
In the case of `CCCCOc1ccc(-c2nc(=S)[nH][nH]2)cc1`, the Potency is reported as active: 11.7 µM.
With `COc1cc(-c2[nH]nc3c2C(c2ccoc2)C(C#N)=C(N)O3)cc(OC)c1OC` (centres undefined) the Potency was inconclusive: 5.86 µM [inhibitor, partial curve].
In the case of `COC(=O)c1sc(NC(=O)c2ccncc2)nc1C`, the Potency is reported as “inactive”.
In the case of `Cc1occc1C(=O)NNC(=O)C1CCCC1`, the Potency is reported as “inactive”.
With `C/C(=N\NC(=O)C1(C)NC(C)(C)Cc2ccccc21)c1ccccc1` (centres undefined) the Potency was “inactive”.
For `CCOC(=O)N1CCC(NC(=O)CC2C(=O)NCCN2Cc2ccccc2)CC1` (centres undefined), the Potency was active: 9.28 µM.
For `CC1=NN(C(=O)c2ccc(Cn3nc(C)c([N+](=O)[O-])c3C)cc2)C(O)(C(F)(F)F)C1` (centres undefined), the Potency was inconclusive: 18.5 µM [inhibitor, single point].
For `COc1ccc(-c2noc(CNS(=O)(=O)c3ccc(NC(C)=O)cc3)n2)cc1`, the Potency was inconclusive: 8.28 µM [inhibitor, partial curve, poor fit].
For `COc1ccc2cc(C(=O)NCc3ccccc3CN3CCCC3)ccc2c1`, the Potency was inconclusive: 10.4 µM [inhibitor, partial curve, poor fit].
In the case of `CCC1CCCCN1C(=O)COc1ccc(F)cc1` (centres undefined), the Potency is reported as “inactive”.
In the case of `CN(C)S(=O)(=O)n1cc(/C=C(\NC(=O)c2ccccc2Cl)C(=O)N2CCCC2)c2ccccc21`, the Potency is reported as “inactive”.
With `Cc1nc2ccccc2nc1SCC(=O)c1ccccc1` the Potency was “inactive”.
For `CN(CCc1ccccc1)C1CCCN(S(=O)(=O)CC(F)(F)F)C1` (centres undefined), the Potency was active: 10.4 µM.
With `CC(=O)N/C(=C/c1ccc([N+](=O)[O-])cc1)C(=O)O` the Potency was inconclusive: 18.5 µM [inhibitor, single point].
In the case of `Cc1ccc(NC(=O)C2=C(O)c3sccc3N(C)S2(=O)=O)cc1`, the Potency is reported as “inactive”.
With `Cc1cccc(NC(=S)NC(C)C(c2cccs2)N2CCN(C)CC2)c1C` (centres undefined) the Potency was inconclusive: 11.7 µM [inhibitor, single point].
With `O=[N+]([O-])c1cc([N+](=O)[O-])c2nonc2c1Nc1ccccc1O` the Potency was active: 2.33 µM.
For `c1ccc2[nH]c(CCCCc3nc4ccccc4[nH]3)nc2c1`, the Potency was “inactive”.
For `O=C(CN1C(=O)c2ccccc2S1(=O)=O)c1ccc2c(c1)OCCCO2`, the Potency was active: 1.47 µM.
For `COc1ccc(/C(O)=C2/C(=O)C(=O)N(CCN3CCOCC3)C2c2ccccn2)cc1` (centres undefined), the Potency was inconclusive: 9.28 µM [inhibitor, partial curve].
For `CCC(C)(C)n1nnnc1C(c1ccc(C)cc1)N1CCCC1` (centres undefined), the Potency was inconclusive: 11.7 µM [inhibitor, single point].
In the case of `O=C(NCc1ccccn1)C1CCN(Cc2cccc(OCc3ccccc3)c2)CC1`, the Potency is reported as inconclusive: 14.7 µM [inhibitor, partial curve, poor fit].
With `Cc1cccc(C2CC(c3ccccc3)Nc3ncnn32)c1` (centres undefined) the Potency was inconclusive: 11.7 µM [inhibitor, single point].
In the case of `O=C(CCOc1ccccc1)Nc1ccccc1`, the Potency is reported as active: 11.7 µM.
In the case of `O=c1cc(CSc2nnnn2-c2ccccc2)nc2scc(-c3ccccc3)n12`, the Potency is reported as active: 8.28 µM.
For `Cc1cc(SCC(=O)c2ccccc2)n2ncc(-c3ccccc3)c2n1`, the Potency was “inactive”.
With `CCCOC(=O)c1ccc(NC(=O)c2nc3nc(C)cc(C)n3n2)cc1` the Potency was inconclusive: 0.147 µM [inhibitor, full curve].
In the case of `O=C(Nc1cc(C(F)(F)F)ccc1Cl)C(=O)N1CCCCC1`, the Potency is reported as “inactive”.
For `O=C(NCCc1ccccc1)C1(c2ccccc2)CCCC1`, the Potency was active: 13.1 µM.
For `CC(=O)Oc1ccc2c(=O)c(N3C(=O)c4ccccc4C3=O)c(C)oc2c1`, the Potency was “inactive”.
For `O=C(Cn1ncc(Cl)c(Cl)c1=O)c1ccc(Cl)cc1`, the Potency was inconclusive: 8.28 µM [inhibitor, partial curve, poor fit].
For `Cc1ccc(S(=O)(=O)N(C)c2ccc(OCC(=O)Nc3nc4ccccc4s3)cc2)cc1`, the Potency was active: 3.29 µM.
For `Cc1ccc(/C=C2\Oc3c(ccc(O)c3CN3CCN(CCO)CC3)C2=O)cc1`, the Potency was inconclusive: 0.928 µM [inhibitor, partial curve, poor fit].
For `OCC[C@@H]1C[C@H](O)[C@@H](O)[C@@]2(CCCc3ccccc3O2)O1`, the Potency was “inactive”.
In the case of `COc1ccc(S(=O)(=O)N2CCCCCC2)cc1N(C)S(=O)(=O)c1ccc(Cl)cc1`, the Potency is reported as inconclusive: 14.7 µM [inhibitor, partial curve, poor fit].
With `CCOc1ccc(Br)cc1S(=O)(=O)Nc1ccc(C(=O)OC(C)C(=O)N(C)c2ccccc2)cc1` (centres undefined) the Potency was inconclusive: 11.7 µM [inhibitor, single point].
In the case of `COC(=O)c1cccc(C(=O)N2CCC(CCC(=O)NCc3ccc(F)cc3)CC2)c1`, the Potency is reported as inconclusive: 18.5 µM [inhibitor, single point].
With `NC(=O)C1CCN(C2=C(NS(=O)(=O)c3ccccc3)C(=O)c3ccccc3C2=O)CC1` the Potency was inconclusive: 10.4 µM [inhibitor, single point].
In the case of `CCOC(=O)CC(=O)CSc1nc(-c2ccccc2)cc(-c2ccc(Cl)cc2)c1C#N`, the Potency is reported as active: 7.38 µM.
With `Cc1nnc(NC(=O)C2CC(=O)N(c3ccccc3)C2)s1` (centres undefined) the Potency was inconclusive: 3.7 µM [inhibitor, partial curve].
In the case of `Cc1ccc(CNC(=S)Nc2ccc(C)c([N+](=O)[O-])c2)cc1`, the Potency is reported as “inactive”.
With `COc1ccc(-c2nsc(SCC(=O)Nc3cc(C)on3)n2)cc1` the Potency was inconclusive: 0.465 µM [inhibitor, partial curve].
For `CCCOc1ccc(C(CC(=O)O)NS(=O)(=O)c2ccc(NC(C)=O)cc2)cc1` (centres undefined), the Potency was inconclusive: 18.5 µM [inhibitor, single point].
In the case of `CCN(CC)S(=O)(=O)c1ccc(Cl)c(C(=O)NCCN2CCOCC2)c1`, the Potency is reported as “inactive”.
With `CCC(C)NC(=O)c1c(N)n(/N=C/c2cccnc2)c2nc3ccccc3nc12` (centres undefined) the Potency was inconclusive: 3.7 µM [inhibitor, single point].
With `COC(=O)c1cc(-c2cccs2)[nH]n1` the Potency was “inactive”.
With `Cn1c(CN2CCCC(C(=O)c3ccc4c(c3)OCO4)C2)nc2ccccc21` (centres undefined) the Potency was active: 9.28 µM.
In the case of `COc1ccc(C(CNc2ccc(S(C)(=O)=O)cc2[N+](=O)[O-])N(C)C)cc1OC` (centres undefined), the Potency is reported as “inactive”.
For `C=CCOc1cccc(CNCc2cccnc2)c1`, the Potency was inconclusive: 18.5 µM [inhibitor, single point].
In the case of `CCOC(=O)C1(O)CC(C)=NN1C(=O)c1cccc(Br)c1` (centres undefined), the Potency is reported as inconclusive: 8.28 µM [inhibitor, partial curve, poor fit].
With `Cn1c(N2CCOCC2)c(/C=N/O)c2ccccc21` the Potency was “inactive”.
For `COc1cccc(-c2cc(C(F)(F)F)nc(N3CCOCC3)n2)c1`, the Potency was “inactive”.
With `Cc1nnsc1C(=O)NNC(=O)Nc1ccccc1` the Potency was inconclusive: 6.57 µM [inhibitor, partial curve, poor fit].
In the case of `COc1cccc(CCC(=O)Nc2cccc(S(=O)(=O)N3CCCC3)c2)c1OC`, the Potency is reported as active: 8.28 µM.
With `Cc1ccc(C2=NN(C(=O)CN3CCN(C4CCS(=O)(=O)C4)CC3)C(c3ccco3)C2)cc1` (centres undefined) the Potency was “inactive”.
In the case of `CC(C)Cn1c(=O)c2ccccc2n2c(CCC(=O)NCc3ccccn3)nnc12`, the Potency is reported as active: 13.1 µM.
In the case of `C/C(=N/NC(=O)c1ccccn1)c1ccncc1`, the Potency is reported as inconclusive: 18.5 µM [inhibitor, single point].
With `CCCC(=O)NCC(c1cccs1)S(=O)(=O)c1ccc(Cl)cc1` (centres undefined) the Potency was active: 2.62 µM.
With `CC(Oc1ccccc1)C(=O)NNC(=O)c1cccs1` (centres undefined) the Potency was inconclusive: 6.57 µM [inhibitor, partial curve].
In the case of `CCN(Cc1cnn(C)c1)C(=O)c1ccc(OC2CCN(S(=O)(=O)N(C)C)CC2)cc1`, the Potency is reported as “inactive”.
With `COC(=O)C1=C(C(=O)OC)C(c2cc(Br)ccc2O)c2sc(=O)[nH]c2S1` (centres undefined) the Potency was inconclusive: 9.28 µM [inhibitor, single point].
In the case of `CCCC(=O)N(CCN1CCOCC1)c1nc2c(C)cccc2s1`, the Potency is reported as inconclusive: 14.7 µM [inhibitor, single point].
For `COc1cc(C2/C(=C(\O)c3ccc4c(c3)OCCO4)C(=O)C(=O)N2Cc2ccco2)cc(OC)c1OC` (centres undefined), the Potency was inconclusive: 18.5 µM [inhibitor, single point].
For `O=C(CSc1ccc(Cl)cc1)Nc1cccc(-c2nc3ncccc3o2)c1`, the Potency was inconclusive: 9.28 µM [inhibitor, single point].
For `COc1ccc(Cl)cc1S(=O)(=O)N1CCCc2ccccc21`, the Potency was inconclusive: 18.5 µM [inhibitor, single point].
For `CCOc1ccccc1C(=O)Nc1ccc(-n2nncc2C(C)(C)C)cc1`, the Potency was inconclusive: 10.4 µM [inhibitor, single point].
In the case of `CC12CCC(=O)N1C(C(=O)Nc1nnc(SCc3ccccc3F)s1)CS2` (centres undefined), the Potency is reported as “inactive”.
For `Cc1ccc(SCC(=O)O/N=C(\N)c2cccc([N+](=O)[O-])c2)cc1`, the Potency was “inactive”.
In the case of `COc1cccc(C(C(=O)NC2CCCCC2)N(C(=O)Cc2cccs2)c2ccc(-n3cnnn3)c(OC)c2)c1` (centres undefined), the Potency is reported as “inactive”.
With `O=C(Cn1cc(C(F)(F)F)cc(Cl)c1=O)NCCc1ccccc1` the Potency was “inactive”.
For `COc1cccc(CNC(=O)COC(=O)CCc2cc(OC)c(OC)c(OC)c2)c1`, the Potency was “inactive”.
In the case of `O=C(NNc1c2ccccc2nc2ccccc12)c1ccc(Cl)cc1`, the Potency is reported as “inactive”.
For `Cc1sc2ncn3ncnc3c2c1C`, the Potency was inconclusive: 1.85 µM [inhibitor, full curve, poor fit].
For `COc1ccc(NC(=S)N(CCCN2CCCC2)Cc2cccs2)cc1`, the Potency was inconclusive: 4.65 µM [inhibitor, single point].
With `CC(C)(C)NC(=O)NC(=O)CN1c2cccc3cccc(c23)S1(=O)=O` the Potency was “inactive”.
For `CC(C)(CNS(=O)(=O)c1ccc2ccccc2c1)N1CCOCC1`, the Potency was inconclusive: 13.1 µM [inhibitor, single point].
For `COc1cc(C2NC(=O)NC(C)=C2C(=O)OCc2ccccc2)ccc1O` (centres undefined), the Potency was inconclusive: 13.1 µM [inhibitor, partial curve, poor fit].
For `COc1ccc(CC(NC(C)=O)C(=O)NC2CCN(S(=O)(=O)c3ccccc3)CC2)cc1OC` (centres undefined), the Potency was active: 5.22 µM.
In the case of `C=CCn1c(-c2ccc(S(=O)(=O)N3CCOCC3)cc2)csc1=Nc1ccccc1`, the Potency is reported as active: 11.7 µM.
In the case of `CCOc1ccc2nc(SCC(=O)NC(=O)C(C)C)sc2c1`, the Potency is reported as inconclusive: 0.465 µM [inhibitor, partial curve, poor fit].
In the case of `CCc1ccc(Nc2ncc3c(n2)CC(C)CC3=O)cc1` (centres undefined), the Potency is reported as inconclusive: 11.7 µM [inhibitor, single point].
